The supplement of paper PMC10849652
This is one part of the list.

Amino acid sequences for entries named in this document (tags omitted). A change or cut given only in a name is not applied to a line headed by its entry.
UniProt Q9BQD7: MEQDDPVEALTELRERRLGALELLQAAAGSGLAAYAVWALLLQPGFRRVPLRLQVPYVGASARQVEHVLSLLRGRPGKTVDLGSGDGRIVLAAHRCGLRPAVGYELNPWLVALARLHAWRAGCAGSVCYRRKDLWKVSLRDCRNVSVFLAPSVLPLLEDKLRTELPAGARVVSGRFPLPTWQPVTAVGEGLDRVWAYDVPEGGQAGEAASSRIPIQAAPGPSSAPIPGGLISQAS
UniProt Q9Y6B7: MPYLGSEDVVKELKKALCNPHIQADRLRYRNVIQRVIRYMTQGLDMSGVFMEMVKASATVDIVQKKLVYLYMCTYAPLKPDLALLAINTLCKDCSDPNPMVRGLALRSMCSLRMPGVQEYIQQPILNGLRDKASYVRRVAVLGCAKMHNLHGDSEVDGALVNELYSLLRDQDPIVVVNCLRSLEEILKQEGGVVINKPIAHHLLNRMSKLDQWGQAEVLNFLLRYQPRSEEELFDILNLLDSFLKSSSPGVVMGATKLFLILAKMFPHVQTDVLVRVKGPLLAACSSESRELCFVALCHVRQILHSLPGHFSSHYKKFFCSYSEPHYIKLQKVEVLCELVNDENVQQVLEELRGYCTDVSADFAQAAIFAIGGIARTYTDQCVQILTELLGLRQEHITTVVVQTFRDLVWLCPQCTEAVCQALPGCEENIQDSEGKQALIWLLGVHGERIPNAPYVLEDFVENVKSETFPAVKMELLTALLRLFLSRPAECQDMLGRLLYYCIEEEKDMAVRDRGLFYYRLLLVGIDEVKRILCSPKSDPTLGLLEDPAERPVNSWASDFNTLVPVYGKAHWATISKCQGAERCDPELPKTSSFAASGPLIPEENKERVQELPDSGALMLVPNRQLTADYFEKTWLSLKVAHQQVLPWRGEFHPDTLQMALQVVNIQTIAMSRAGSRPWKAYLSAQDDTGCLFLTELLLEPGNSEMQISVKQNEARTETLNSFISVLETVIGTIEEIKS
UniProt O60306: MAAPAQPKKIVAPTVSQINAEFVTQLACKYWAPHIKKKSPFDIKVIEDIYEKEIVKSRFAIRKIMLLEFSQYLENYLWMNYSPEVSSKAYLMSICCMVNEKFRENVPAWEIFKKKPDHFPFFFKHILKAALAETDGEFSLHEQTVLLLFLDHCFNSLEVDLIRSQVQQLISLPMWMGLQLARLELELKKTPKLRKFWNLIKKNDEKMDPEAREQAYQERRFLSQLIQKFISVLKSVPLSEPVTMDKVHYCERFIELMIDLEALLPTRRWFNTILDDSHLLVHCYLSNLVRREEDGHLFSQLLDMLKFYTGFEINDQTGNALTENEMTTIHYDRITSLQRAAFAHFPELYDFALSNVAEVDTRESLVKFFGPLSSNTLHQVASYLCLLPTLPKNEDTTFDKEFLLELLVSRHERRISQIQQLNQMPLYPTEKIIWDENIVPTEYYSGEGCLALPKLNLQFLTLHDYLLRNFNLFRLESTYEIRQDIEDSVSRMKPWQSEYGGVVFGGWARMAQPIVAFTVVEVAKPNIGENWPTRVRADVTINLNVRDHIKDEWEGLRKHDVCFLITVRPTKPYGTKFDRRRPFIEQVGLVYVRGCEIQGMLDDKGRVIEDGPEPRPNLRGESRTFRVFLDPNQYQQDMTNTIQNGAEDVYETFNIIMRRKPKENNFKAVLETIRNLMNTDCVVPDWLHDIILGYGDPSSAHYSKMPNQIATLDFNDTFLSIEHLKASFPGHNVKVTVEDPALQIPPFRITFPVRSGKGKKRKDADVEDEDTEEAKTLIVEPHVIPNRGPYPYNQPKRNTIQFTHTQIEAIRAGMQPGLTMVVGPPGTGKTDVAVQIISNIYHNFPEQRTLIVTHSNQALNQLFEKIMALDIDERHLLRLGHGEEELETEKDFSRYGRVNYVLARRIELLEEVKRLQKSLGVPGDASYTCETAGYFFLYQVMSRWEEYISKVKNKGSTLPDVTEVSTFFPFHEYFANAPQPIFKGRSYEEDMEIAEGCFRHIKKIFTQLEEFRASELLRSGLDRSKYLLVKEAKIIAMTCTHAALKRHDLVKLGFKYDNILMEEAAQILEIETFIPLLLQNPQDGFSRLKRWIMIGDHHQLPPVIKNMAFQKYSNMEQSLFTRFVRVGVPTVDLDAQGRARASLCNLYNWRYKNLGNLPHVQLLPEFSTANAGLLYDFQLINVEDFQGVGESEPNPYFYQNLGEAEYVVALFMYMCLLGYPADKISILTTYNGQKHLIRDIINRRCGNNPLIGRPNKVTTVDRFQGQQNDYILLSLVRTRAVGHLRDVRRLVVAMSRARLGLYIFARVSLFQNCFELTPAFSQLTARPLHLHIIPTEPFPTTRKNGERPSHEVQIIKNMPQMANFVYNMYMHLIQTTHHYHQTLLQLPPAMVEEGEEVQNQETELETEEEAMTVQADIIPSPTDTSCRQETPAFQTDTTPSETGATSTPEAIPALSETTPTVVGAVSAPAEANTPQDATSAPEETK
UniProt Q07960: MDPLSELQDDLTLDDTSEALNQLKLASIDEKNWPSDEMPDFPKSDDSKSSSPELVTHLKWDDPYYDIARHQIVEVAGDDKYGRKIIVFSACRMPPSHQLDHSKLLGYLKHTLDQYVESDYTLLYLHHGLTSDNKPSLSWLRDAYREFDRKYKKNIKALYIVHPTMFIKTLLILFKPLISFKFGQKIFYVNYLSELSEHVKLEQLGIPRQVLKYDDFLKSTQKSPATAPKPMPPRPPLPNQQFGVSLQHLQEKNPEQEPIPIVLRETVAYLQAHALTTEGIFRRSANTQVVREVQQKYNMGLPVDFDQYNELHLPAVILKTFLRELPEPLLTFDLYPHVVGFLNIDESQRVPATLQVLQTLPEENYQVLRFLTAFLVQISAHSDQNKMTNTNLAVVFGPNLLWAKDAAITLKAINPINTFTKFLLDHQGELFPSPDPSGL
UniProt Q6UXV4: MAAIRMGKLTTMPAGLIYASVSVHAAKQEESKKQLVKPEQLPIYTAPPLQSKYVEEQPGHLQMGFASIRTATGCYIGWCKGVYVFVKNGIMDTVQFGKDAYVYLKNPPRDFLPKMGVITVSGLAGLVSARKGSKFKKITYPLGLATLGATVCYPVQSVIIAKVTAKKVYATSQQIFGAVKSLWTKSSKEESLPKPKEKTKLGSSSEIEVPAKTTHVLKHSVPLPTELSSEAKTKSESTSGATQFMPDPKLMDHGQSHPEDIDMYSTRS
UniProt P12429: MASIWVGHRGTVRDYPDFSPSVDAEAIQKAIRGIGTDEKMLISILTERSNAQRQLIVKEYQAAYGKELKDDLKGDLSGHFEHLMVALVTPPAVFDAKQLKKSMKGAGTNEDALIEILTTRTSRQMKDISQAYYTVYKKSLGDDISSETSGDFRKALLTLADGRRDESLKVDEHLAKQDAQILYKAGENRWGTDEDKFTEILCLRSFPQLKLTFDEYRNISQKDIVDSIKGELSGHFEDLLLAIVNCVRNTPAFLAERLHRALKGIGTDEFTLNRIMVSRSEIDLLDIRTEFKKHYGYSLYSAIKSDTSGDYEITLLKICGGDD
UniProt Q7Z2E3: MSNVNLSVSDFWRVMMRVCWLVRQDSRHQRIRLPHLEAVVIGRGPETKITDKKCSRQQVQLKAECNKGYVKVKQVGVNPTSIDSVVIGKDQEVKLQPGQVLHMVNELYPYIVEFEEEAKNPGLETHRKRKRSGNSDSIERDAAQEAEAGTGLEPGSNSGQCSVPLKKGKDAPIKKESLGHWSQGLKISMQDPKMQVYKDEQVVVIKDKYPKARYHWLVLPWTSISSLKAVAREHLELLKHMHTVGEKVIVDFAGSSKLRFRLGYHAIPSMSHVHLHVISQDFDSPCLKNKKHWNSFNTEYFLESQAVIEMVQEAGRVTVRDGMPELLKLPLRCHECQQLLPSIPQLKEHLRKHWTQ
UniProt Q9HDC9: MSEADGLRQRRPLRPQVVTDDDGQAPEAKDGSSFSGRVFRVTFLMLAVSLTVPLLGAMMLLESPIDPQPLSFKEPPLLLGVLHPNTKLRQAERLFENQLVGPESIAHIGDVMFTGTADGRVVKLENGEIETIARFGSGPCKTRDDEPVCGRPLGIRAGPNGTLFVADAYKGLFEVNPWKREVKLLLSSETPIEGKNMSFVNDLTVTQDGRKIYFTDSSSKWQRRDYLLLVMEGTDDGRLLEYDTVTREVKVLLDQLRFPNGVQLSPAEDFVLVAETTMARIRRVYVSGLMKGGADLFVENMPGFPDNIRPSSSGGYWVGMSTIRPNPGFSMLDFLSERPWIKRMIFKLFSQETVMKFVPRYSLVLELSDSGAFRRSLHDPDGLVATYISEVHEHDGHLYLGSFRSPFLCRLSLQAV
UniProt Q10567: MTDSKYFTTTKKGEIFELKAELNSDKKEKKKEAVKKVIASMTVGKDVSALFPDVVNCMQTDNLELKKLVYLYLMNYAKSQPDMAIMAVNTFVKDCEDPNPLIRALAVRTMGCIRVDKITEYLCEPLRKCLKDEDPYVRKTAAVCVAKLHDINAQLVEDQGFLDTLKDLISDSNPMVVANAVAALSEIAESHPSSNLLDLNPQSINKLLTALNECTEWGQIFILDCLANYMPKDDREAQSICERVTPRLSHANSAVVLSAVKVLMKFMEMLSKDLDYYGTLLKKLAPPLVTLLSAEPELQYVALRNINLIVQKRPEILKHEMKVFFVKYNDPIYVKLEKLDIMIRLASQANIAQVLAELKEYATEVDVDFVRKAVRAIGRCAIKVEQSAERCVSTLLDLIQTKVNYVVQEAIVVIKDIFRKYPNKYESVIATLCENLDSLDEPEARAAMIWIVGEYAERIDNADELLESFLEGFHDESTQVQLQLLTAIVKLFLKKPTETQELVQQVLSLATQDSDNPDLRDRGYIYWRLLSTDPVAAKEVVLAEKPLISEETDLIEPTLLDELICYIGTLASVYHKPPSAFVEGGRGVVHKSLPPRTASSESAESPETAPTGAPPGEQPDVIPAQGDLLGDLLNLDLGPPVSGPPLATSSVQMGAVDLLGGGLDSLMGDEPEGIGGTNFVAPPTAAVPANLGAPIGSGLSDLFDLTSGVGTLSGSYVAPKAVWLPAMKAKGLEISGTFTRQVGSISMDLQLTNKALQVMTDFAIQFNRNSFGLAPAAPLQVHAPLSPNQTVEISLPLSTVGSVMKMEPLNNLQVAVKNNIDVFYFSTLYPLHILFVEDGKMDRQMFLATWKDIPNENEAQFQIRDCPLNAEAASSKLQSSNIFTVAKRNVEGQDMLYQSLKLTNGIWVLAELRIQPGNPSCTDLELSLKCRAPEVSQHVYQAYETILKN
UniProt Q96GX9: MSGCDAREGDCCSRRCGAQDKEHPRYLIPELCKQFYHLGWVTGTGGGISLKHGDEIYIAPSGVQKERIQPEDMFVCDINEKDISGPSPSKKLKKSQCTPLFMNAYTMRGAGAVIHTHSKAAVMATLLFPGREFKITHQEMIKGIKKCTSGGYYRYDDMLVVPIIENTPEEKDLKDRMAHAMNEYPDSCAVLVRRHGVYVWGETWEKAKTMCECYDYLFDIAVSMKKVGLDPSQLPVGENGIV
UniProt O95445: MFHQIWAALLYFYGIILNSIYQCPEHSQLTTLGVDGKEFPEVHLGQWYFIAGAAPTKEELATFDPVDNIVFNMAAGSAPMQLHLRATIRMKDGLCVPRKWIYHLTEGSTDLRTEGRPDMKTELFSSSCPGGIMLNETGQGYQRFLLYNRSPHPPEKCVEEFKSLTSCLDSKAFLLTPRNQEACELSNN
UniProt O43747: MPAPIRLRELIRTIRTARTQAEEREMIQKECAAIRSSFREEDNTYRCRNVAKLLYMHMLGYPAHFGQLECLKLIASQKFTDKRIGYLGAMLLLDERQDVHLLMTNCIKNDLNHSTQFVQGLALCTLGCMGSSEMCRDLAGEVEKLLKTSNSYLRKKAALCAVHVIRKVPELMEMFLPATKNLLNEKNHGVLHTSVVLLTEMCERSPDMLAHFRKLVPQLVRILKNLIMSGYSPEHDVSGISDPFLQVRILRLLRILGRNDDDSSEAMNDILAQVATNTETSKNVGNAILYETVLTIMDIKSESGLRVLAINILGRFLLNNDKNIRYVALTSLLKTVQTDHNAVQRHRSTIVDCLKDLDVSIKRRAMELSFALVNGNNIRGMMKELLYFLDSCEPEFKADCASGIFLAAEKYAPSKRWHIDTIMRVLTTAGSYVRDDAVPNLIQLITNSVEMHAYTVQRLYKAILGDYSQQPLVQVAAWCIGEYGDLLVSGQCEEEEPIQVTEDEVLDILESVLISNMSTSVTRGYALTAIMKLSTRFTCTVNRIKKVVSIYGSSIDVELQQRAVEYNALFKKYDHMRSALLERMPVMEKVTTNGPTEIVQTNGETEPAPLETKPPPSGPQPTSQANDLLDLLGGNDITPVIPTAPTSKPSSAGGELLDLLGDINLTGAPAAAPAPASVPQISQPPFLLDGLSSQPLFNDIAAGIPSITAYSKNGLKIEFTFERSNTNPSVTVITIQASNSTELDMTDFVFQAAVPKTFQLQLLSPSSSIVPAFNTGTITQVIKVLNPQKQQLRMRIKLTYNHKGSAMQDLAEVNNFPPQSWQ

compound: CO[C@H]1C[C@@H]2CC[C@@H](C)[C@@](O)(O2)C(=O)C(=O)N2CCCC[C@H]2C(=O)O[C@H]([C@H](C)C[C@@H]2CC[C@H](n3cnnn3)[C@H](OC)C2)CC(=O)[C@H](C)/C=C(\C)[C@@H](O)[C@@H](OC)C(=O)[C@H](C)C[C@H](C)/C=C/C=C/C=C/1C [zotarolimus]; test: log2 fold change, soluble protein after heating vs DMSO (PISA); higher = thermal stabilisation; K562 cells, 10 uM, 30 min; active = over 0.2 and 3.5 SD of the protein, either way, in both replicates (recomputed)
Procedure, shortened: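 For each measurement, 10 μM compound was applied for 30 min to K562 cells at 2×10^6 cells/mL. Aliquots were heated for 3 min across 48°C-58°C, pooled, and extracted in PBS with 0.5% NP-40 at 4°C; the supernatant after 21,000xg for 90 min was soluble protein. This was quantified by TMTpro 16plex LC-MS/MS with channel sums equalised, and thermal stability was reported relative to control samples from duplicates, on a log2 fold-change scale.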

log2 fold change, inactive:
ANGPTL3 (UniProt Q9Y5C1) -0.153, AP2B1 isoform 2 (UniProt P63010) 0.036, ANTKMT (UniProt Q9BQD7) 0.011, ANKMY2 (UniProt Q8IV38) -0.005, AP4B1 (UniProt Q9Y6B7) 0.159, AP2A1 (UniProt O95782) 0.033, ANK1 isoform 14 (UniProt P16157) 0.185, AQR (UniProt O60306) 0.083, ARHGAP1 (UniProt Q07960) 0.038, ANKRD13A (UniProt Q8IZ07) -0.025, ANKRD49 (UniProt Q8WVL7) -0.004, APOOL (UniProt Q6UXV4) -0.029, ARID1A (UniProt O14497) -0.014, ARFGEF2 (UniProt Q9Y6D5) 0.035, ARHGEF7 isoform 5 (UniProt Q14155) 0.143, ARAP1 (UniProt Q96P48) 0.114, ANXA3 (UniProt P12429) -0.002, ARFGAP3 (UniProt Q9NP61) -0.019, APTX (UniProt Q7Z2E3) 0.045, APOA1 (UniProt P02647) 0.126, APMAP (UniProt Q9HDC9) -0.063, APOBR (UniProt Q0VD83) -0.039, AP1B1 (UniProt Q10567) 0.035, APIP (UniProt Q96GX9) -0.055, APOBEC3D (UniProt Q96AK3) -0.085, AP5M1 (UniProt Q9H0R1) 0.05, ANXA5 (UniProt P08758) 0.049, ARFGAP1 (UniProt Q8N6T3) 0.047, APOO (UniProt Q9BUR5) -0.002, APLP2 (UniProt Q06481) 0.002, APOM (UniProt O95445) -0.106, AP1G1 isoform 2 (UniProt O43747) 0.054, APOB (UniProt P04114) -0.013, ANAPC5 (UniProt Q9UJX4) 0.043, AP2M1 (UniProt C9JTK4) -0.203, ARHGAP12 (UniProt Q8IWW6) 0.064
